Laboratory results: PubChem BioAssay AID652259 (Drosophila RNAi Screening Center, 2013)
In all, the deposit lists about 22,000 reagents; shown is a random part of those that have a named target and a result. Of all reagents, 233 (1.1%) are marked active. 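Light values are raw, unnormalised plate reads; the ratio scores behind the reporter calls were not deposited.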 A number with no mark means an inactive call. Not given: the amount of reagent, the time to read-out, the dose of the treatment.

Purpose: 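Identify new Wingless signalling regulators in fly cells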 (primary screen)
Cell system: Drosophila clone 8 imaginal disc epithelial cells
Reagents: long dsRNA against Drosophila genes
Conditions: pathway stimulated by co-transfected Wingless expression plasmid
Read-out: 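Firefly luciferase from a tcf-site Wingless reporter, measured alongside co-transfected Renilla luciferase that tracks transfection; pathway stimulated by a Wingless plasmid; the firefly-to-Renilla ratio is not deposited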
Reading the numbers: firefly reporter light: higher = more Wg reporter light, before normalisation; Renilla control light: higher = more transfected or surviving cells
Active means: 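Strong candidates differ from their plate mean by at least two out of four per-plate statistical tests; weak candidates meet just one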
Calls: active = candidate regulator (raises or lowers reporter); inactive = not a candidate

CG14770 (GeneID 31085) [DRSC17947] → firefly reporter light, replicate 1 = 29024; Renilla control light, replicate 1 = 20762
eIF3d1 (GeneID 42789) [DRSC16938] → reporter change call, replicate 1 = Wg reporter activity raised; firefly reporter light, replicate 1 = 20503; Renilla control light, replicate 1 = 10562
CG17234 (GeneID 59225) [DRSC00490] → firefly reporter light, replicate 1 = 2029; firefly reporter light, replicate 2 = 5651; Renilla control light, replicate 1 = 774; Renilla control light, replicate 2 = 2330
lncRNA:CR9162 (GeneID 12798573) [DRSC03151] → firefly reporter light, replicate 1 = 16156; Renilla control light, replicate 1 = 6753
Mi-2 (GeneID 40170) [DRSC11222] → reporter change call, replicate 1 = Wg reporter activity raised (active); firefly reporter light, replicate 1 = 57387; Renilla control light, replicate 1 = 6132
CG8419 (GeneID 34118) [DRSC03087] → firefly reporter light, replicate 1 = 2684; firefly reporter light, replicate 2 = 5421; Renilla control light, replicate 1 = 1526; Renilla control light, replicate 2 = 3777
croc (GeneID 40374) [DRSC11884] → firefly reporter light, replicate 1 = 17105; Renilla control light, replicate 1 = 6451
MED31 (GeneID 40577) [DRSC12142] → reporter change call, replicate 1 = Wg reporter activity raised (active); firefly reporter light, replicate 1 = 13749; Renilla control light, replicate 1 = 2027
CG13039 (GeneID 39805) [DRSC09920] → firefly reporter light, replicate 1 = 7490; Renilla control light, replicate 1 = 3395
CG5377 (GeneID 42645) [DRSC15783] → firefly reporter light, replicate 1 = 35211; Renilla control light, replicate 1 = 7660
CG14535 (GeneID 34073) [DRSC02393] → firefly reporter light, replicate 1 = 2724; firefly reporter light, replicate 2 = 5622; Renilla control light, replicate 1 = 842; Renilla control light, replicate 2 = 3312

Entries listed so far whose target name starts with M or m (2):
Mi-2 (GeneID 40170) [DRSC11222] → reporter change call, replicate 1 = Wg reporter activity raised (active); firefly reporter light, replicate 1 = 57387; Renilla control light, replicate 1 = 6132
MED31 (GeneID 40577) [DRSC12142] → reporter change call, replicate 1 = Wg reporter activity raised (active); firefly reporter light, replicate 1 = 13749; Renilla control light, replicate 1 = 2027

Continued:
CG9521 (GeneID 32414) [DRSC20196] → firefly reporter light, replicate 1 = 21392; Renilla control light, replicate 1 = 8484
kappaTry (GeneID 36215) [DRSC06146] → firefly reporter light, replicate 1 = 3749; Renilla control light, replicate 1 = 2021
CG8195 (GeneID 36725) [DRSC07103] → firefly reporter light, replicate 1 = 13357; Renilla control light, replicate 1 = 4054
Obp19b (GeneID 33038) [DRSC20536] → firefly reporter light, replicate 1 = 19138; Renilla control light, replicate 1 = 9573
Cyp305a1 (GeneID 40161) [DRSC11126] → firefly reporter light, replicate 1 = 6395; Renilla control light, replicate 1 = 1712
CG12268 (GeneID 42833) [DRSC14491] → firefly reporter light, replicate 1 = 16152; Renilla control light, replicate 1 = 14854
CG2685 (GeneID 31259) [DRSC18463] → firefly reporter light, replicate 1 = 14425; Renilla control light, replicate 1 = 9468
CG7218 (GeneID 42165) [DRSC16216] → firefly reporter light, replicate 1 = 2133; firefly reporter light, replicate 2 = 5203; Renilla control light, replicate 1 = 1096; Renilla control light, replicate 2 = 1779
CG13465 (GeneID 50282) [DRSC10011] → firefly reporter light, replicate 1 = 7165; Renilla control light, replicate 1 = 2944
Cyp9b2 (GeneID 35635) [DRSC07390] → firefly reporter light, replicate 1 = 2365; firefly reporter light, replicate 2 = 3996; Renilla control light, replicate 1 = 483; Renilla control light, replicate 2 = 1944
CG12637 (GeneID 31996) [DRSC17845] → firefly reporter light, replicate 1 = 21229; Renilla control light, replicate 1 = 11472
Tsp42Ef (GeneID 35615) [DRSC06191] → firefly reporter light, replicate 1 = 3200; firefly reporter light, replicate 2 = 6841; Renilla control light, replicate 1 = 1286; Renilla control light, replicate 2 = 3622
CG13192 (GeneID 36259) [DRSC06317] → firefly reporter light, replicate 1 = 4008; Renilla control light, replicate 1 = 1653
ago (GeneID 38516) [DRSC08463] → firefly reporter light, replicate 1 = 5922; Renilla control light, replicate 1 = 3184
